# Test results taken from paper PMC7862700.
# Chains of the proteins cited; added tags and fusions are not shown. Lines headed by an entry give the natural chain unless they say otherwise; changes in a name come on top.
# UniProt O43186: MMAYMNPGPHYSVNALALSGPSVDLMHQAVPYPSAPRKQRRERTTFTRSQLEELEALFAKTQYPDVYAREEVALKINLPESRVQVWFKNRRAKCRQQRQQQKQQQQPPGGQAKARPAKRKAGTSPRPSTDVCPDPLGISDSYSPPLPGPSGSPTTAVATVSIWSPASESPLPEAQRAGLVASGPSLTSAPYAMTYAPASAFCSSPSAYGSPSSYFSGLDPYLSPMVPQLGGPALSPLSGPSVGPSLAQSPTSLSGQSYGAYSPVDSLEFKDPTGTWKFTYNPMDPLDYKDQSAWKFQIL
# The entries are a selection whose mix differs from that of the whole data set. At the low end of the ranking, values are background and their order means little.
# Molecular target: CRX (UniProt O43186)
# Assay: DAPPL (digital affinity profiling via proximity ligation, sequencing)
# Conditions: 10 mM Tris-HCl pH 7.5, 50 mM NaCl, 1 mM DTT, 4% glycerol, room temperature, 30 min; GST-TFs on glutathione beads, 16-mer random dsDNA library, 0.1% …; high values mean tight binding; double strand, one strand shown; scale: fold enrichment (6-mer frequency, TF over GST control)
row,Sequence,binding signal
1,TGCCTC,1.06
2,GGTTCA,0.86
3,CACCGG,0.614
4,CTTAAG,2.69
5,CTGCTG,1.01
6,TACCTT,1.55
7,ACTCTG,1.12
8,GTCCTT,0.99
9,TAACTT,1.56
10,TTCCCA,1.16
11,TTATGC,2.28
12,TGTCAT,0.87
13,CAAACA,0.854
14,AACTAC,1.2
15,TTGATC,1.71
16,AGATGC,0.976
17,TCCGGT,1.04
18,ATGTTT,1.26
19,TTATAT,2.47
20,AAACCG,0.916

# Pulled one by one from the entries so far, two records:
row,Sequence,binding signal
9,TAACTT,1.56
11,TTATGC,2.28

# The results go on:

row,Sequence,binding signal
1,CAAACT,0.952
2,CCACAA,0.992
3,GCTGGC,0.843
4,AGCGTC,0.856
5,TACTCC,1.26
6,TCACAA,1.09
7,CGCTAT,0.942
8,CTCGCA,1.2
9,CGGATG,0.793
10,GGTCTA,1.01
11,CCGCCG,0.829
12,GTCTCT,1
13,TATCCC,2.22
14,ACTGAC,0.825
15,CGTACA,0.862
16,CACGAT,1.39
17,AACTAT,1.26
18,AATGGT,1.1
19,GACCGG,0.477
